At least one compound was matched to its structure with a doubt left.
Tested on: collagen-induced arthritis (CIA) model
Test: Therapeutic efficacy of DEX conjugates in CIA mice
Type: in vivo, mouse

C[C@@H]1C[C@H]2[C@@H]3CCC4=CC(=O)C=C[C@]4(C)[C@@]3(F)[C@@H](O)C[C@]2(C)[C@@]1(O)C(=O)CO [DEX, dexamethasone]
bone damage in ankle joints by micro-CT (bone surface, BV/TV, BMD) (0.01 mg kg-1 DEX equivalent): rough and severely eroded bone surface, and a much low (bone volume/tissue volume) BV/TV ratio and bone mineral density (BMD) | severity of joint swelling / disease development (0.01 mg kg-1 DEX equivalent i.v. every two days for one week): little effect on the severity of joint swelling

Reference: patent publication US20250352654A1, “PHARMACEUTICAL AGENT CONJUGATES TO MODULATE MACROPHAGE AND INFLAMMATORY FUNCTIONS AND USES THEREOF” (REGENTS OF THE UNIVERSITY OF MINNESOTA, priority 2022, published 2025)
